Experimental data published in PubChem BioAssay AID2685 (National Center for Advancing Translational Sciences (NCATS), 2010).
The list shows a part of the results. Shown are side measurements of this screen, not its main read-out; they come without a call. The list favours compounds with an active or inconclusive main result. Words in brackets tell the shape of the fitted curve; partial curves, single points and poor fits give uncertain potencies.

Experiment: qHTS Assay for Lipid Storage Modulators in Drosophila S3 Cells;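 on cell number change: cells counted by Cell Tracker Red CMTPX staining in the red channel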
Conditions: BODIPY lipid droplet fluorescence, 18-24 h; for cell number change: measured here: cell count max response, cells fed with added oleic acid
Text: NIH Molecular Libraries Probe Production Centers Network [MLPCN] NIH Chemical Genomics Center [NCGC] MLPCN Grant: 1 R03 MH085686-01 Assay Submitter (PI): Beller, Mathias; Max-Planck-Institut fur Biophysikalische Chemie NCGC Assay Overview: Storing lipids as a reservoir for energy or the anabolism of elementary metabolites is a common feature of probably all cells and is conserved from bacteria to humans. The universal cellular lipid storage organelle is the so-called lipid storage droplet (LD). Although ubiquitous, LDs share a simple structure composed of a hydrophobic core that harbors the storage lipids, which is shielded by a droplet-specific phospholipid monolayer to which proteins are attached. The current model of LD biogenesis involves an incorporation of the lipid core into the membrane leaflets of the endoplasmic reticulum (ER) followed by a subsequent budding-like maturation of a LD, which ultimately pinches off. Once released, LD volume can increase by localized lipogenesis or fusion of existing droplet. Storage lipids are re-mobilized enzymatically by lipase activity. Lipase regulation in the adipocyte is heavily studied and involves multiple components including catecholamine signaling, the LD-associated proteins Perilipin and comparative gene identification (CGI-58) and at least two lipases named hormone sensitive lipase (HSL) and adipocyte triglyceride lipase (ATGL). LD regulation outside of the adipocyte is poorly understood and only few components are known. However, there is an urgent need to learn more about ectopic fat depots as mislocalized storage of lipids, for example in the liver or muscle, is an eminent health problem associated with insulin resistance or the metabolic syndrome. We developed a laser-scanning cytometer assay to enable 1,536-well screening and combined the results of the small molecules screen with an RNAi database based on lipid storage.
Triacsin C (Sigma-Aldrich T-4540), an inhibitor of long-chain fatty acyl CoA synthetase that blocks synthesis of triglycerides, was used as a positive control for lipid under-storage. A total of 23 nL of compound solution of different concentrations were transferred to the assay plates using a Kalypsys pin tool equipped with a 1,536-pin array containing 10-nL slotted pins (FP1S10, 0.457-mm diameter, 50.8 mm long; V&P Scientific). One microliter of oleic acid (400 uM) was added, and the plate was lidded with stainless steel rubber gasket lined lids containing pinholes. […] Fluorescence was detected by excitation of the fluorophores with a 488-nm laser on an Acumen Explorer (TTP Lab Tech). The total intensity in channel 2 (500-530 nm) reflected lipid droplet accumulation. Cells were detected using channel 3 (575-640 nm) with 5-um width and 100-um depth filters. The ratio of the number of objects in PMT channel 2 over the number of objects in PMT channel 3 was also calculated. Percent activity was computed relative to an internal control (100% inhibited lipid droplet deposition due to the presence of 20 uM Triacsin C), which was added to 32 wells/plate.

[1] = measured here: cell number channel AC50, cells fed with added oleic acid
[2] = measured here: lipid fluorescence (Fed channel) AC50, cells fed with added oleic acid

CC(=NCc1ccco1)c1c(O)n(-c2ccccc2)c(=O)[nH]c1=O
cell number change: -8.42%

O=C(Cc1ccc(Cl)c(Cl)c1)NCC1(N2CCOCC2)CCCCC1
AC50 [1]: 0.0058 µM [rising, full curve, poor fit]

CC(=O)c1c(C)n(CCCOC(C)C)c2ccc(O)cc12
cell number change: -3.88% | AC50 [2]: 2.59 µM [rising, single point]

Nc1ccccc1-[n+]1c(-c2ccccc2)cc(-c2ccccc2)cc1-c1ccccc1
cell number change: -50% | AC50 [1]: 29.1 µM [falling, single point] | AC50 [2]: 29.1 µM [falling, single point]

CCOC(=O)c1c(C)c(P(=S)(N2CCOCC2)N2CCOCC2)n(C)c1C
cell number change: 11.8%

Cc1ccccc1N1C(=O)NC(=O)/C(=C\c2cnn(-c3ccccc3)c2)C1=O
cell number change: -35.9% | AC50 [1]: 25.9 µM [falling, partial curve, poor fit] | AC50 [2]: 20.6 µM [falling, partial curve]

Cc1ccc(S(=O)(=O)N2CCCCC2)cc1NC(=O)CN1CC=C(c2ccccc2)CC1
cell number change: -14.2% | AC50 [2]: 0.651 µM [falling, single point]

COC(=O)N(c1ccccc1)P(=O)(Oc1ccccc1)Oc1ccccc1
cell number change: 1.8% | AC50 [1]: 6.51 µM [rising, single point]

COc1ccc(/C=C2/C(=O)NC(=O)N(c3ccccc3)C2=O)cc1CN1C(=O)c2ccccc2C1=O
cell number change: 5.68% | AC50 [2]: 10.3 µM [rising, partial curve]

COC(=O)C1=C(c2cccc(OCc3ccccc3)c2)C[C@@H]2CC[C@H]1N2C(=O)NCc1cccc(OC)c1
cell number change: 15.4% | AC50 [1]: 1.16 µM [falling, single point] | AC50 [2]: 1.03 µM [falling, single point]

Clc1ccc(C(c2ccccc2)c2ncc[nH]2)cc1 (centres undefined)
cell number change: 7.49% | AC50 [2]: 29.1 µM [rising, single point]

CCCCN1C(=O)NC(=O)C2(Cc3ccccc3N3CCOCC32)C1=O (centres undefined)
cell number change: -10.2% | AC50 [2]: 0.0259 µM [falling, full curve, poor fit]

Cc1ccc(OP(=O)(NCc2ccccc2)Oc2ccc(C)cc2)cc1
cell number change: 28.9% | AC50 [2]: 2.06 µM [rising, single point]

CC(C)CCCn1c(O)c(/C=C2/C=CC=N2)c(=O)[nH]c1=O
cell number change: 2.51%

COP(=S)(OC)c1c(C)nn(CCC#N)c1NC(=O)c1ccc(Cl)cc1
cell number change: 4.78% | AC50 [2]: 20.6 µM [rising, partial curve]

Cc1ccc(N2C(=O)NC(=O)/C(=C\C=C\c3ccco3)C2=O)cc1C
cell number change: -47% | AC50 [1]: 11.6 µM [falling, partial curve] | AC50 [2]: 3.26 µM [falling, full curve]

O=C1NC(=S)NC(=O)C1=Cc1cccc2cc3ccccc3cc12
cell number change: -50.6% | AC50 [1]: 1.46 µM [falling, partial curve] | AC50 [2]: 1.46 µM [falling, partial curve]

Nc1nnc(CCN2CCCCC2)s1
cell number change: -12.3% | AC50 [2]: 5.17 µM [falling, partial curve, poor fit]

O=C(CCn1c(=O)oc2ccccc21)NCCCN1CCCC1=O
AC50 [2]: 5.8 µM [falling, full curve]

Cc1ccc(CN2C(=O)NC(=O)C3(Cc4c(nc5ccccn5c4=O)N4CCCCCC43)C2=O)cc1 (centres undefined)
cell number change: -58.7% | AC50 [1]: 18.4 µM [falling, single point] | AC50 [2]: 1.64 µM [rising, partial curve]

c1cncc(C2CCCCN2)c1 (centres undefined)
cell number change: 22.2% | AC50 [2]: 7.31 µM [rising, full curve, poor fit]

CCOC(C[n+]1c(-c2ccccc2)cc(C)cc1-c1ccccc1)OCC
cell number change: 10.2% | AC50 [2]: 0.291 µM [falling, partial curve]

O=C(COc1ccc2ccccc2c1)N1CCN(CC2CC3C=CC2C3)CC1 (centres undefined)
cell number change: 3.36% | AC50 [2]: 18.4 µM [rising, single point]

CCC(=NCCOc1ccc(Cl)cc1)c1c(O)n(C)c(=O)n(C)c1=O
AC50 [2]: 0.58 µM [rising, single point]

Cc1cccc(C(=O)NC(Oc2ccccc2)C(Cl)(Cl)Cl)c1 (centres undefined)
cell number change: -5.92% | AC50 [2]: 0.116 µM [falling, full curve, poor fit]

COC(=O)CCCCC1SCC(NC(=O)c2ccccc2)C1Cl (centres undefined)
cell number change: -18.3% | AC50 [2]: 0.092 µM [falling, full curve, poor fit]

Cc1cc(C)c(C2=NOC(O)(C(F)(F)F)C2)c(=O)[nH]1 (centres undefined)
cell number change: 19.7% | AC50 [2]: 8.2 µM [rising, partial curve, poor fit]

Cc1cc(C)cc(N2C(=O)NC(=O)/C(=C\c3cccn3-c3ccccc3)C2=O)c1
cell number change: -43.1% | AC50 [1]: 14.6 µM [falling, partial curve, poor fit] | AC50 [2]: 7.31 µM [falling, partial curve]

COc1ccc(NC(=O)CN(C)C(=O)CSC(c2ccccc2)c2ccccc2)cc1
cell number change: -13.4% | AC50 [2]: 29.1 µM [falling, single point]

COC(=O)C1=C(c2ccc3ccccc3c2)C[C@@H]2CC[C@H]1N2C(=O)NCCO
cell number change: 12.6%

C=CCn1c(O)c(C(CC)=NCCc2ccccc2)c(=O)[nH]c1=O
cell number change: 72.6% | AC50 [1]: 9.2 µM [rising, partial curve] | AC50 [2]: 3.26 µM [rising, partial curve]

CSc1ccc(CN2CCN(C(=O)COc3cccc(C)c3)CC2)cc1
cell number change: 24.9%

CC(C)OC1CCCC(O)C1CC(=O)O (centres undefined)
cell number change: -37.3% | AC50 [1]: 0.651 µM [falling, full curve] | AC50 [2]: 23.1 µM [falling, partial curve]

O=c1[nH]c(=O)n(-c2ccccc2F)c(O)c1/C=C1\C=Nc2ccccc21
cell number change: -6.18% | AC50 [2]: 9.2 µM [falling, single point]

CCN1C(=O)NC(=O)/C(=C\c2cn(CC(=O)N3CCCCC3)c3ccccc23)C1=O
cell number change: 2.94% | AC50 [2]: 0.206 µM [falling, single point]

CCC(C)N1Cc2ccccc2C1=N (centres undefined)
cell number change: -7.74% | AC50 [2]: 6.51 µM [rising, single point]

CCCCOc1ccc(CN2CCN(CCO)CC2)cc1
cell number change: -22.2% | AC50 [1]: 0.116 µM [falling, full curve, poor fit] | AC50 [2]: 25.9 µM [falling, single point]

COP(=O)(OC)C1(Nc2ccc(C)cc2)CCCCC1
cell number change: -83.1% | AC50 [1]: 18.4 µM [falling, single point] | AC50 [2]: 0.146 µM [rising, full curve, poor fit]

COc1ccc2c(c1)c(C(=O)CN1CCC3(CC1)OCCO3)c(C)n2Cc1ccccc1
cell number change: 15%

Cc1cccc(NP(=O)(Oc2ccccc2)Oc2ccccc2)c1C
cell number change: -0.417% | AC50 [2]: 0.164 µM [falling, full curve, poor fit]

NS(=O)(=O)c1ccc(N=Cc2c(O)n(C3CCCCC3)c(=O)n(C3CCCCC3)c2=O)cc1
cell number change: -40.4% | AC50 [1]: 29.1 µM [falling, single point] | AC50 [2]: 29.1 µM [falling, single point]

OC[C@H]1O[C@@H](n2cnc3cc(Cl)c(Cl)cc32)[C@H](O)[C@@H]1O
cell number change: 7.39% | AC50 [2]: 4.11 µM [rising, single point]

CCCCn1c(O)c(C=NCCCn2ccnc2)c(=O)[nH]c1=O
cell number change: 4.99% | AC50 [2]: 5.8 µM [rising, full curve, poor fit]

O=Cc1cn(CCCOc2ccccc2)c2ccccc12
cell number change: 8.03% | AC50 [2]: 5.8 µM [falling, full curve]

CCCCn1c(O)c(C(CC)=NCCN2CCCCC2)c(=O)[nH]c1=O
cell number change: 2.85%

O=c1c(/C=N/N2CCOCC2)c(O)n(-c2ccccc2)c(=S)n1-c1ccccc1
cell number change: 3.4% | AC50 [2]: 0.164 µM [falling, full curve, poor fit]

CCCCCn1c(=O)c(C(=O)Nc2cccc(C)c2)c(O)c2ccccc21
cell number change: 12%

COC(=O)C1=C(c2ccc(-c3ccccc3)c(F)c2)C[C@@H]2CC[C@H]1N2C(=O)NCCOc1ccccc1Cl
AC50 [2]: 20.6 µM [falling, partial curve]

CCOc1ccc(N=Cc2c(O)n(CCc3ccc(OC)c(OC)c3)c(=O)[nH]c2=O)cc1
AC50 [1]: 6.51 µM [rising, single point]

COC(=O)C(O)(c1ccc(NC(=O)Oc2ccccc2)cc1)C(F)(F)F (centres undefined)
cell number change: -41.2% | AC50 [1]: 2.06 µM [falling, partial curve, poor fit]

O=c1c2ccccc2nc(-c2ccoc2)n1-c1ccccc1
AC50 [1]: 2.31 µM [rising, single point]

CSc1ncc(/C=C2/C(=O)NC(=O)N(C3CCCCC3)C2=O)cn1
cell number change: -4.62% | AC50 [2]: 29.1 µM [falling, single point]

C[C@]12C=CC(=O)C=C1C=C[C@@H]1C2CC[C@]2(C)C(=O)CCC12 (some centres undefined)
cell number change: -22.2% | AC50 [2]: 29.1 µM [rising, partial curve]

COc1ccc(C2=CC(c3ccc(OC)c(OC)c3)c3c(c4ccccc4oc3=O)O2)cc1OC (centres undefined)
cell number change: 7.67% | AC50 [2]: 23.1 µM [rising, single point]

Cn1cccc1CNCCc1ccccc1F
cell number change: -29.9% | AC50 [1]: 4.11 µM [falling, full curve, poor fit]

CN(Cc1ccccc1)C(=O)Cn1c(=O)oc2cc(S(=O)(=O)N3CCCC3)ccc21
AC50 [1]: 0.58 µM [rising, single point]

Cc1nc2ccccc2c(=O)n1-c1cccc(O)c1
cell number change: 10.6% | AC50 [2]: 0.00651 µM [falling, full curve, poor fit]

CC1CCCCN1Cc1ccc(Cl)nc1 (centres undefined)
cell number change: 8.72% | AC50 [1]: 1.84 µM [falling, partial curve, poor fit]

O=C1CC(=O)N(Cc2ccccc2)C(=O)N1CCCCCCN1C(=O)CC(=O)N(Cc2ccccc2)C1=O
cell number change: 32.2%
